Data taken from PubChem BioAssay AID1159506, deposited by NCATS (2015).

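Luminescence from an EWS-FLI1 target-promoter (NR0B1) reporter, set against a CMV-promoter reporter, two days after silencing single genes in TC32 Ewing sarcoma cells.
Each siRNA was applied at 20 nM.
A z-score of the log NR0B1-over-CMV signal, less the median of siRNAs with the same seed; more negative means a stronger specific loss of the NR0B1 reporter.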

This is part of the screen; most of the strongest results are not listed here.
Sequences are the guide (antisense) strand, without overhang.

Sequence	target gene	seed-corrected z-score
UUCGUGCUUGAAUUAAACC	GALNT7	0.1564
UUAGUCUCUACGGUGGGUC	KIAA1143	-0.8267
UCAGAGGACAUACCUGACU	BPIFA3	-0.3775
UCAUAUACCACCGACUUUG	KLHL26	-0.2575
AAUAUAUCGAUGUUGCAUG	HNRNPH3	0.3422
AUAUCAUAAAUUCUUAUCC	LOC642980	-1.123
UUGUCAUCUAGAAUUAGCC	RXFP2	0.8269
UAGAAAUACUCCUUGAUGU	CCL5	0.7266
AAAACUGUUGUUAUGUUCC	OTOP1	0.2159
UUCCCUCUUACCACCCACC	AQP2	-0.2303
UUUGUAGCCUCUCCAAGCG	FXR2	-0.4792
UGGGUUUGGAGACCUUGCU	LOC642620	0.8665
UUAUUGCCUGAGUAAGUUC	ESF1	1.167
UCGGUGGAAAAGUACAAGG	ICE2	-1.25
UAACUUAUCGAUGAGCUGC	CABLES2	0.9054
AAUCCUACAAUUCUAAUAG	CEP78	0.5697
UUUCGGACAAAGUGCAUCC	SPATA5	0.502
UACUGAUGCGGUAUUGUGC	PFKL	-0.9446
UGAUUGAUUAAAGUGAUGG	ABCA6	-0.03789
UUGUUGAUCAGCCGUACCA	SIL1	1.117
UACCUAGCAAGCUGUAGAU	SLC26A10	-1.522
UUUGUUCCAUUUCAGAGCG	TBL1Y	2.691
AUCUUCACCCACUCGCACC	RPRML	-0.5276
UCCUGCAAAAGAAGCCUGG	PMVK	-0.5853
UGAUGUUCCAGAUAUUCUG	GSTK1	-1.06
UGUGAUUACAGCUUCCAUC	RNF19B	0.0794
AAUAGGUUGAGAAACAUAG	SETP4	-0.7011
UUUGGUAAACUUGUUCCCU	GTF2IRD1	0.4581
UCAUGUUCUGAUGUGAGCG	RNF13	-0.9696
UCCUUGCUCAGUUACAGAC	YWHAZ	-0.1969
UAUAAAAACCUGUCGAGUC	CDK11A	-0.3406
UCCGUGAAAGACUCUAUGA	RAB40AL	-0.2257
UACAAGACCAAAACGAUGG	VN1R2	-0.004064
UAUGAUGAAUGAAGUAGGC	KSR1	-0.461
UAGUAGCCGGGUACAGUGC	C1QA	-0.1365
UCCACAUACUCGUAGAUGC	PRPF31	-0.9557
ACCUUUGCAACAGAAAUCC	NT5DC1	1.136
UUAAUGUAGAUCUCUUCGC	ABR	-0.5208
UGAGUCUUCACCCUGAUAU	ZNF22	-0.9042
AUCGCAAACAUUGCAGUUC	ZZEF1	-0.3163
AUCUGUUCACCAUACAUAC	TMEM14EP	-1.558
AAACAAGGAACUCGAAGGC	COX6B2	0.1926
UUCGGUCAAACCUCUGAGG	B4GALT1	0.2509
AUAGCAUUCCCUCUGUAGG	RPS10P30	0.3749
AACGCGAAGAUGAUGCAGG	MYADM	0.5892
UUACGUUCAAGUACAUCUC	PIK3C3	0.297
AACUGUCUCAAGUCCCUCG	BPIFA2	-1.571
UUGGGUCAUAGUCUUUCAG	C2orf50	-0.7028
UGCUGCUUCAACUUUCUCU	LOC643896	-0.5679
ACAAUUUGACCUAUUAACC	TUBA1A	0.8086
UUUCAUAAGAUGGUCAUGU	PODXL	0.8686

For reference, 4 entries once more:

Sequence,target gene,seed-corrected z-score
UUCCCUCUUACCACCCACC,AQP2,-0.2303
UCCACAUACUCGUAGAUGC,PRPF31,-0.9557
UCCUUGCUCAGUUACAGAC,YWHAZ,-0.1969
AUCUUCACCCACUCGCACC,RPRML,-0.5276